In article PMC3358251:
These are yes or no findings as the source states them, for the method shown. In cells and extracts the contact can be indirect. For some assays here: Binding calls can cover weak binding; strength is not graded here.

B1: VE-cadherin (protein, UniProt Q6URK6 46-783)
chain: DWIWNQMHIDEERNDSLPHYVGKIKSSVDPKKTEYQLRGESAGKVFRVDKNTGDVYALERLDREKISEYHLTALVVDKDSKKNLESPSSFTIKVHDVNDNWPVFTHRVFNASVPEMSGIGTSVIQVTAMDADDPTVADHASVVYQLTKGKENFDIRGSGLIVTMNKHLDRETQDKYEVVVKAEDAQGRRGESGTATVFITLQDVNDNFPIFTQNRYTFSVPEDIRVGSPLGSLFVEDPDEPQNRKTKYSFVQGEYRDTFTIDTDPSHNEGIIKPIKPLDYERIRQYSFTIEATDPTIDLRYLGSTSPKNIARVIINVTDVDEPPIFQQPFYHFQLQENQKKPLIGSVLAKDPDAAQRDIRYSIRRTSDKGQFFGITKKGGIYNDKELDREVYPWYNLTVEAKEVDLSGTPTGKESIVQVHIEVMDENDNAPEFAKPYEPKVCENAPQGKLVVQISATDKDITPRDVKFKFSLSTEDSNFTLIDNHDNTANIIVKYGYFDRERAKVHHLPVLISDNGRPSLTGTSTLHVTVCKCNEHGEFTLCEEAAAQVGISIQALVAIFLCILTFTVITLLIILRRRLRKQARAHGKSVPEIHEQLVTYDEEGGGEMDTTSYDVSVLNSARHGGAKPPRPALDARPSLYAQVQKPPRQAPGAHAPGEMAAMIGVKKDEADHDGGGPPYDTLHIYGYEGAESIAESLSSLGTDSSDSDIDYDFLNDWGTRFKMLAELYGSDPQEELVY

How the values were obtained:
[1] = target: T1, VE-cadherin (bovine (endogenous in BAEC)) (UniProt Q6URK6); experiment: co-IP; endogenous proteins of BAEC lysates (HEPES lysis buffer pH 7.4, 150 mM NaCl, 1% NP-40, 5 mM EDTA, 300 µM pervanadate); antibody and Dynabeads Protein G, immunoblot; cells non-transduced or transduced with Ad-GFP (baseline), or with Ad-FGFR1DN and Ad-SHP2 (rescue)
T1 sequence: B1 chain

[2] = target: T1, VE-cadherin (bovine (endogenous in BAEC)); experiment: condition: only in cells transduced with Ad-FGFR1DN; co-IP; as a1, but BAEC transduced with Ad-FGFR1DN (FGF signaling suppressed)
[3] = target: SHP2 (bovine (endogenous in BAEC)); experiment: co-IP; endogenous proteins of BAEC lysates (HEPES lysis buffer pH 7.4, 150 mM NaCl, 1% NP-40, 5 mM EDTA, 300 µM pervanadate); antibody and Dynabeads Protein G, immunoblot; cells non-transduced or transduced with Ad-GFP (baseline), or with Ad-FGFR1DN and Ad-SHP2 (rescue)
[4] = target: SHP2 (bovine (endogenous in BAEC)); experiment: condition: only in cells transduced with Ad-FGFR1DN; co-IP; as a1, but BAEC transduced with Ad-FGFR1DN (FGF signaling suppressed)

| Molecule | binding [1] | binding [2] | binding [3] | binding [4] |
| --- | --- | --- | --- | --- |
| SHP2 (bovine (endogenous in BAEC)) (enzyme) | binds | no binding |  |  |
| p120-catenin (bovine (endogenous in BAEC)) | binds |  |  |  |
| B1 |  |  | binds | no binding |
